Results deposited as PubChem BioAssay AID1508597 (Cure First, 2020)
Shown is a random part of the about 2,100 reagents, in one setting of the screen. 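Calls flag viability under 80% in either arm, not effects specific to rucaparib; the reference for percent is not stated.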 Some reagents were tested in more than one well and are listed for each. Not given: the 100% reference.

- Assay: 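Knock-downs altering ovarian cancer cell survival with or without PARP inhibitor rucaparib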 (primary screen)
- Cells: human ovarian carcinoma lines grown from tumours: OCI-P5x (papillary serous) and OCI-C5x (clear cell)
- Reagent: siRNA pool against human genes, 1.25 pmol siRNA per well
- Time to read-out: 72 h or 96 h, depending on the cell culture
- Challenge: rucaparib 20 µM (about IC30) or vehicle, present until read-out
- Rucaparib or vehicle: Vehicle
- Cell line: OCI-P5x (serous)
- Measurement: 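Luminescent ATP-based viability assay read 72 or 96 h after transfection, depending on culture, given as normalised percent viability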
- Reading the numbers: viability, normalised: higher = more viable cells remaining
- Hit rule: 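Active when normalised viability falls below 80 percent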
- Meaning of the calls: active = viability under 80%; inactive = viability 80% or more

POLB (GeneID 5423), technical replicate 1 showed viability, normalised (%) = 57.6; active. POLB (GeneID 5423), technical replicate 2 gave viability, normalised (%) = 63.7; active. POLB (GeneID 5423), technical replicate 3 scored viability, normalised (%) = 58.1; active. For PRKACB (GeneID 5567), technical replicate 1, the entry reads viability, normalised (%) = 87; inactive. PRKACB (GeneID 5567), technical replicate 2 gave viability, normalised (%) = 82.7; inactive. For PRKACB (GeneID 5567), technical replicate 3, the entry reads viability, normalised (%) = 61.9; active.

With SLIT1 (GeneID 6585), technical replicate 1, the values are viability, normalised (%) = 61.5; active. SLIT1 (GeneID 6585), technical replicate 2 gave viability, normalised (%) = 66.3; active. For SLIT1 (GeneID 6585), technical replicate 3, the values are viability, normalised (%) = 83.2; inactive. CDC42BPA (GeneID 8476), technical replicate 1 gave viability, normalised (%) = 68.2; active. With CDC42BPA (GeneID 8476), technical replicate 2, the entry reads viability, normalised (%) = 65; active. CDC42BPA (GeneID 8476), technical replicate 3 scored viability, normalised (%) = 78.8; active.

For MED25 (GeneID 81857), technical replicate 1, the entry reads viability, normalised (%) = 66.1; active. MED25 (GeneID 81857), technical replicate 2 showed viability, normalised (%) = 72.6; active. For MED25 (GeneID 81857), technical replicate 3, the entry reads viability, normalised (%) = 89.2; inactive. For IGF1R (GeneID 3480), technical replicate 1, the entry reads viability, normalised (%) = 60.8; active. IGF1R (GeneID 3480), technical replicate 2 showed viability, normalised (%) = 71.2; active. IGF1R (GeneID 3480), technical replicate 3 showed viability, normalised (%) = 69.7; active.

SMC2 (GeneID 10592), technical replicate 1 gave viability, normalised (%) = 56.4; active. For SMC2 (GeneID 10592), technical replicate 2 the deposit lists viability, normalised (%) = 60.9; active. For SMC2 (GeneID 10592), technical replicate 3, the entry reads viability, normalised (%) = 81.5; inactive. With EPHA2 (GeneID 1969), technical replicate 1, the entry reads viability, normalised (%) = 64.5; active. EPHA2 (GeneID 1969), technical replicate 2 showed viability, normalised (%) = 49.8; active. EPHA2 (GeneID 1969), technical replicate 3 gave viability, normalised (%) = 65.3; active.

With TSPYL1 (GeneID 7259), technical replicate 1, the entry reads viability, normalised (%) = 64.8; active. With TSPYL1 (GeneID 7259), technical replicate 2, the entry reads viability, normalised (%) = 42; active. TSPYL1 (GeneID 7259), technical replicate 3 scored viability, normalised (%) = 93.9; inactive.

Records listed so far whose gene name begins with M or m:
MED25 (GeneID 81857), technical replicate 1: viability, normalised (%) = 66.1; outcome = active
MED25 (GeneID 81857), technical replicate 2: viability, normalised (%) = 72.6; outcome = active
MED25 (GeneID 81857), technical replicate 3: viability, normalised (%) = 89.2; outcome = inactive

The results go on.
With CMPK1 (GeneID 51727), technical replicate 1, the values are viability, normalised (%) = 94.5; inactive. For CMPK1 (GeneID 51727), technical replicate 2, the values are viability, normalised (%) = 71.9; active. CMPK1 (GeneID 51727), technical replicate 3 scored viability, normalised (%) = 62.7; active. With MAPK13 (GeneID 5603), technical replicate 1, the values are viability, normalised (%) = 72.3; active. With MAPK13 (GeneID 5603), technical replicate 2 the deposit lists viability, normalised (%) = 68.4; active. MAPK13 (GeneID 5603), technical replicate 3 showed viability, normalised (%) = 74.7; active.

DYRK4 (GeneID 8798), technical replicate 1 scored viability, normalised (%) = 78.8; active. For DYRK4 (GeneID 8798), technical replicate 2, the entry reads viability, normalised (%) = 77; active. DYRK4 (GeneID 8798), technical replicate 3 showed viability, normalised (%) = 85.9; inactive. POLA1 (GeneID 5422), technical replicate 1 gave viability, normalised (%) = 68.1; active. POLA1 (GeneID 5422), technical replicate 1 scored viability, normalised (%) = 66.1; active. POLA1 (GeneID 5422), technical replicate 2 scored viability, normalised (%) = 56.1; active.

POLA1 (GeneID 5422), technical replicate 2 showed viability, normalised (%) = 60.8; active. POLA1 (GeneID 5422), technical replicate 3 showed viability, normalised (%) = 61.3; active. With POLA1 (GeneID 5422), technical replicate 3, the entry reads viability, normalised (%) = 52.7; active.
